No constants are given. Whether binding was seen depends on the method and setting. Some entries that bind do so weakly or less than the wild type.

Assay [1] addresses T1, biotinylated BMP-2 (R&D Systems, Item number 355-BM/CF) (human) (UniProt P12643).
T1 sequence (biotinylated (sites not given), looked up): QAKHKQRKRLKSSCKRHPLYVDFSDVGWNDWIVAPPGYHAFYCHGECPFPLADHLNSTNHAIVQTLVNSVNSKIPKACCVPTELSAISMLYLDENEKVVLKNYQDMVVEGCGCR
The experiment in a line: serine-scan mutant phage ELISA.

The target in a further assay is Streptavidin. The experiment in a line: phage ELISA titration, streptavidin-coated wells without BMP-2, HRP anti-M13 antibody, luminescence.

As for AGYTSFALLKS [SEQ ID NO: 33, a fragment of SEQ ID NO: 3], the binding result in assay [1] is “binds”. As to AGFRWWHTQPAHTLSYT (peptide, not shown: large carriers) [phage displaying the peptide of SEQ ID NO: 4 on the pIX minor coat protein], the binding result with Streptavidin was “binds”. As to AGRDSFNLLTS [SEQ ID NO: 34, a fragment of SEQ ID NO: 6], the binding entry in assay [1] was “binds”.
